No constants are given. Whether binding was seen depends on the method and setting. Binding seen in cells or lysates may run through a third protein. A yes stands for co-enrichment or nearness to the bait. Other partners may have been found. Tags and fused reporters may be left off the sequences shown.
T1: YFP-SPANX-A (human) (UniProt Q9NS26)
T1 sequence: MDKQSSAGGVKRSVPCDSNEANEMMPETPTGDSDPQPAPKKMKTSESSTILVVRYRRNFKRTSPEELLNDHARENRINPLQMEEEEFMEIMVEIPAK

Protein sequences, listed by entry. Tags and fused reporters are not part of them. Lines headed by an entry give the natural chain unless they say otherwise; changes in a name come on top. Residues count along the entry.
UniProt P02545, residues 1-646: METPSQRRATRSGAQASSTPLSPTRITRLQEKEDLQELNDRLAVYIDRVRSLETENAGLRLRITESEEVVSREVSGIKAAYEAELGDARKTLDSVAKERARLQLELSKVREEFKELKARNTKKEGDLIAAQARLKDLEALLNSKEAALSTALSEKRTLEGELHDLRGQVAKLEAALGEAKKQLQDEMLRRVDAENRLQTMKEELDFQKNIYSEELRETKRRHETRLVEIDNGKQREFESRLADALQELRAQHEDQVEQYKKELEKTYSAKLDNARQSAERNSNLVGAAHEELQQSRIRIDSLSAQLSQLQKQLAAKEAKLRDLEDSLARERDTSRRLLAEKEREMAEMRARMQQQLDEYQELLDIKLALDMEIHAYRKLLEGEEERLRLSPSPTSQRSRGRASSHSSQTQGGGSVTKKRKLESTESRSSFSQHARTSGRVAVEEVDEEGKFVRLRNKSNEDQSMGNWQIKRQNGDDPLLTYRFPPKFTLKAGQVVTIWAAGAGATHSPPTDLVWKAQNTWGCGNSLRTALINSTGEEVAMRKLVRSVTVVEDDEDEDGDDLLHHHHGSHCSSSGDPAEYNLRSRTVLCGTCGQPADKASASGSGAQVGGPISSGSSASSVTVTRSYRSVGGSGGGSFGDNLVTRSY
UniProt Q02413, residues 50-1049: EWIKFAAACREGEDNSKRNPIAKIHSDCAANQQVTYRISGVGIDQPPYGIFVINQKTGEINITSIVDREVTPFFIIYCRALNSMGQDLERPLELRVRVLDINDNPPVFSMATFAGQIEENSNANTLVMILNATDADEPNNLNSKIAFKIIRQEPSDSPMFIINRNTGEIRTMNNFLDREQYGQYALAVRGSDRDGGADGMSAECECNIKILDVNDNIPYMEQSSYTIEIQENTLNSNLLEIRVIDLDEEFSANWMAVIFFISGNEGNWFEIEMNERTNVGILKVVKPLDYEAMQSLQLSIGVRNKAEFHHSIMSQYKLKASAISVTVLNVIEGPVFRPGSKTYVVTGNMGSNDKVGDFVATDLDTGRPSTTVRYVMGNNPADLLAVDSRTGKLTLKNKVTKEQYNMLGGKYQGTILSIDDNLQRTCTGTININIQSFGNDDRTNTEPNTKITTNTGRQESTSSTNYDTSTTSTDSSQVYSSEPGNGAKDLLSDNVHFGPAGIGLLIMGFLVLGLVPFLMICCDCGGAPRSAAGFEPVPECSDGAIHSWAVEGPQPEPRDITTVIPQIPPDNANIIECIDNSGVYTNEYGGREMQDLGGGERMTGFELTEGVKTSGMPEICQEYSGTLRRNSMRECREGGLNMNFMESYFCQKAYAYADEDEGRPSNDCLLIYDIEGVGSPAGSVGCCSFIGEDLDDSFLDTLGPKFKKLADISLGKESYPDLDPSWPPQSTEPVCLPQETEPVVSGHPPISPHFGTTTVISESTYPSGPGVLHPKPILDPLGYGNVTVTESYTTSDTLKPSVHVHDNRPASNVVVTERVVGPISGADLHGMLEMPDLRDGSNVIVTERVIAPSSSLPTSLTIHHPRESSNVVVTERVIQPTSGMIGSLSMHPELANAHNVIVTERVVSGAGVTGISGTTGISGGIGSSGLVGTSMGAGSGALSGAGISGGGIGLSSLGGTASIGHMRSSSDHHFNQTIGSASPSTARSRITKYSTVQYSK
UniProt P11142: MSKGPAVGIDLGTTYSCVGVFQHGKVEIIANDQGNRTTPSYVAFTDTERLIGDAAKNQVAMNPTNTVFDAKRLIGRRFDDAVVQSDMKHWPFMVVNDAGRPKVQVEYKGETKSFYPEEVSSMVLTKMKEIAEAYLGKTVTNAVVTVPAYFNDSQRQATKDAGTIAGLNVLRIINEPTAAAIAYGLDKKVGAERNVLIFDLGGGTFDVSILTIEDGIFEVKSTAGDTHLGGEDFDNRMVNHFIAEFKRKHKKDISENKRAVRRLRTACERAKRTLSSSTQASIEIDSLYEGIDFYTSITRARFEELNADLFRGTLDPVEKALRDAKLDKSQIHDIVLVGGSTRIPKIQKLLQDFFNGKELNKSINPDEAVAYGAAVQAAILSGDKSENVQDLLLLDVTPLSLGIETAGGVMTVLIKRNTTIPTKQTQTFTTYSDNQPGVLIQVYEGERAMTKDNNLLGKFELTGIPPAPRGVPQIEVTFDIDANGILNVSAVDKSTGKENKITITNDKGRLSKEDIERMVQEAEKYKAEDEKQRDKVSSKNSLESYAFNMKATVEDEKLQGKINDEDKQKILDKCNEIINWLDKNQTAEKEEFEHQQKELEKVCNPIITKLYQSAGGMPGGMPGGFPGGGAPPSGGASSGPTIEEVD
UniProt P35908: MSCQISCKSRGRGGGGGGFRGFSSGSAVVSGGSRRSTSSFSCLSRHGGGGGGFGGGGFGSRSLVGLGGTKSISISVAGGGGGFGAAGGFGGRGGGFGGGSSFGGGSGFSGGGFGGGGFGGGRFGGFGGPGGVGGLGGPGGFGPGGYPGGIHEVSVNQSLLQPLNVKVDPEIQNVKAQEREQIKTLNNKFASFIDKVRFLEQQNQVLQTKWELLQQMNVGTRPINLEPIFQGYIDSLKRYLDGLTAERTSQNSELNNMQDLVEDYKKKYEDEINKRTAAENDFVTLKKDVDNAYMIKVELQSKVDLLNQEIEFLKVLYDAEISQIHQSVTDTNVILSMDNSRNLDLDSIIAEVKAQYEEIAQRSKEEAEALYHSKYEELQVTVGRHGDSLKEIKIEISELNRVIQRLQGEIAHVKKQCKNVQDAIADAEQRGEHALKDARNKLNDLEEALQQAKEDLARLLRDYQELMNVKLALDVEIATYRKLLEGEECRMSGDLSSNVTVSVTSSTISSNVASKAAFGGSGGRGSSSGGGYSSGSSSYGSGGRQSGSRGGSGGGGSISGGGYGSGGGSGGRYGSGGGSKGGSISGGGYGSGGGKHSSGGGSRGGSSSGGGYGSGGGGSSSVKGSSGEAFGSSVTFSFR
UniProt P68363: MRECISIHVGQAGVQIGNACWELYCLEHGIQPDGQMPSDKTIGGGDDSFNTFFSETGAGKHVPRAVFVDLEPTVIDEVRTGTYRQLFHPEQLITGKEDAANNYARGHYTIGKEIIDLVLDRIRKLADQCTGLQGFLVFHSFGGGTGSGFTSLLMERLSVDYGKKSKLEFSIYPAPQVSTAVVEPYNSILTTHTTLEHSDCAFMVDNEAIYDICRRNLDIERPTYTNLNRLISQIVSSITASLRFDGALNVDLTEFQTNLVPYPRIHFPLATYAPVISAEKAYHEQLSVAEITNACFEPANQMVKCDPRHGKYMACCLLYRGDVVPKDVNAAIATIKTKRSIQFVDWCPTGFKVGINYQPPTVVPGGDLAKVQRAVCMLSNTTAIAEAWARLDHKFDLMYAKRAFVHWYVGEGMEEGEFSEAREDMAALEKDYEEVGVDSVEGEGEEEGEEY
UniProt P68371: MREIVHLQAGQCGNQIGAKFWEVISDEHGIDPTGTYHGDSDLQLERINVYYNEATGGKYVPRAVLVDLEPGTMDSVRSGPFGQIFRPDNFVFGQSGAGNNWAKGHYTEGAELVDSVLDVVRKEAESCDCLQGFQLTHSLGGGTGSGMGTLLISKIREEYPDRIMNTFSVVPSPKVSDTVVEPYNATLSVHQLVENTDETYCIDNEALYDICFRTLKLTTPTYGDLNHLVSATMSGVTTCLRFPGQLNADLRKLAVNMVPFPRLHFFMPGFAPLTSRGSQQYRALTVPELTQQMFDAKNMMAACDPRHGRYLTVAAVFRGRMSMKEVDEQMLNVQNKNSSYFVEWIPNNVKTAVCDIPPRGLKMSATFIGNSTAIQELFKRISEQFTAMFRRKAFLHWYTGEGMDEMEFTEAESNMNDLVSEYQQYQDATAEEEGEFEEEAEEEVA
UniProt Q08554: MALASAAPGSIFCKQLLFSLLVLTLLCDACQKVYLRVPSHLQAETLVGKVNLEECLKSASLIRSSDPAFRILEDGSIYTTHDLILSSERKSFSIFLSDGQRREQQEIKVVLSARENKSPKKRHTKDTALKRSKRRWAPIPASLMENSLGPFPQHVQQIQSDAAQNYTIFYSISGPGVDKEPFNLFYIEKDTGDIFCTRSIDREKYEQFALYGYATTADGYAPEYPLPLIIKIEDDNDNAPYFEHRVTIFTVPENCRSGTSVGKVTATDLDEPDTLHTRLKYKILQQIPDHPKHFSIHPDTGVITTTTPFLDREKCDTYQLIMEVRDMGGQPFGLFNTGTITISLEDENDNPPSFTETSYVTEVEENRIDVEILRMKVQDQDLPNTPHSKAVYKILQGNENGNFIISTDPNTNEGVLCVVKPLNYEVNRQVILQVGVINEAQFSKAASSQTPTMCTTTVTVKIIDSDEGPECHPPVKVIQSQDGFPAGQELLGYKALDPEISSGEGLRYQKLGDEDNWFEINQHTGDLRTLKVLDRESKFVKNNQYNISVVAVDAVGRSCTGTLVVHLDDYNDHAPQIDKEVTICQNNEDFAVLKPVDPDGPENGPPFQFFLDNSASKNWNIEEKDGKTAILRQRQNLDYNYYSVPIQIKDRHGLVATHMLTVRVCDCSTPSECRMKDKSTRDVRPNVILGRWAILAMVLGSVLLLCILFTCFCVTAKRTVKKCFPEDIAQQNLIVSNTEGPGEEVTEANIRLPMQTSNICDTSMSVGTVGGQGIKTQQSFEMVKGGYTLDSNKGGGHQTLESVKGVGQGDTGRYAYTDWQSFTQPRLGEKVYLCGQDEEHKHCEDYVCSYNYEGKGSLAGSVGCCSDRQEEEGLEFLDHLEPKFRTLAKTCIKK
UniProt P04264: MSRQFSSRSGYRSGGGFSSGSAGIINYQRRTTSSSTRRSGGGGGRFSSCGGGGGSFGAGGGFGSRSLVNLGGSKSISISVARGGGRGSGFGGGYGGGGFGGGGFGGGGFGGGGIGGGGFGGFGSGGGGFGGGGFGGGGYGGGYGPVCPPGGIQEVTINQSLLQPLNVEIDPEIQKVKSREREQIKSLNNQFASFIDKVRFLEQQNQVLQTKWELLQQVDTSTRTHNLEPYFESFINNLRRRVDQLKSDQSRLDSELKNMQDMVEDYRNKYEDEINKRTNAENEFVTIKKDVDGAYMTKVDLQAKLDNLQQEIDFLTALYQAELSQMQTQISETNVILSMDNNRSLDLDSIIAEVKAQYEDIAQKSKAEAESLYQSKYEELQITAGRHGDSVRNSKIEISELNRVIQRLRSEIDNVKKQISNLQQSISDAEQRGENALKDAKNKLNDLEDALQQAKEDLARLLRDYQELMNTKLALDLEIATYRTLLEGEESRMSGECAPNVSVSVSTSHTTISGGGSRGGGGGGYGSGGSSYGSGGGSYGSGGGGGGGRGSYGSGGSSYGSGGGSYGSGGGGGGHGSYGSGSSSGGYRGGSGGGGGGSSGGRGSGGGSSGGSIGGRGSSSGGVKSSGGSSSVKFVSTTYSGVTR
UniProt P28482: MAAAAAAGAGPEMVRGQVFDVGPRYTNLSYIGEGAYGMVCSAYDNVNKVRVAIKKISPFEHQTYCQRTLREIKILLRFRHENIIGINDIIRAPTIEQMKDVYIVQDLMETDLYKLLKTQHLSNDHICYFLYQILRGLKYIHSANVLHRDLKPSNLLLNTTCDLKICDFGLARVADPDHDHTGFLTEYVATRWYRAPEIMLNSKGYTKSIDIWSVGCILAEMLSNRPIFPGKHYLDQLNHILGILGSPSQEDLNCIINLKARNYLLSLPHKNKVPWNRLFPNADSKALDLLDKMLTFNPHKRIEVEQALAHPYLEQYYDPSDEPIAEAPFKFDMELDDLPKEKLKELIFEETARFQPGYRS
UniProt P14618: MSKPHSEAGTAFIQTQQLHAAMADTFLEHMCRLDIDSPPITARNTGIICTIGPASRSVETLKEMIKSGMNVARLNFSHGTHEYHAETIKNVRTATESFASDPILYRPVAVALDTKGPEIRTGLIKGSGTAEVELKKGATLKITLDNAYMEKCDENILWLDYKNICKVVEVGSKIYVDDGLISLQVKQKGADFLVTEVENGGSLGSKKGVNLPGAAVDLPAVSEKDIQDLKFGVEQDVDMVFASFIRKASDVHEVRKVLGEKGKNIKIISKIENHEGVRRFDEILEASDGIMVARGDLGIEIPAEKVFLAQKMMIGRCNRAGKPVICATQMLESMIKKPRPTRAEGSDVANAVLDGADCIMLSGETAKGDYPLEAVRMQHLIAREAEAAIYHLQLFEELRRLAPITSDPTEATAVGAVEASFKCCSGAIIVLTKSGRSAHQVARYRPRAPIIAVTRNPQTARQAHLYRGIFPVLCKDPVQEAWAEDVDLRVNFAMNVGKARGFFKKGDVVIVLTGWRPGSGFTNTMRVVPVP


molecular target: T1, YFP-SPANX-A (human); assay: affinity purification with mass spectrometry; YFP-SPANX-A expressed in A375 cells, lysate in Co-IP buffer (100 mM NaCl, 20 mM Tris-HCl, 1% NP-40), pulled down in quadruplicate with GFP-Trap Magnetic Agarose; LC-MS/MS, label-free quantification; interactors identified in at least three of the four pull-downs

Row | Molecule | binding
1 | Lamin-A/C (LMNA) (from UniProt P02545 1-646) | binds
2 | desmoglein-1 (DSG1) (from UniProt Q02413 50-1049) | binds
3 | heat shock cognate 71 kDa protein (HSPA8) (from UniProt P11142 1-646) | binds
4 | inosine-5-monophosphate dehydrogenase 2 (IMPDH2) (from UniProt P12268 1-514) (enzyme) | binds
5 | keratin KRT2 (from UniProt P35908 1-639) | binds
6 | α tubulin (TUBA1B) (from UniProt P68363 1-451) | binds
7 | β tubulin (TUBB4B) (from UniProt P68371 1-445) | binds

Other lines, results leading:

Row | binding | Molecule
8 | binds | desmocollin-1 (DSC1) (from UniProt Q08554)
9 | binds | keratin KRT1 (from UniProt P04264 1-644)
10 | binds | mitogen-activated protein kinase 1 (MAPK1) (from UniProt P28482 1-360) (enzyme)
11 | binds | pyruvate kinase (PKM) (from UniProt P14618 1-531) (enzyme)

molecular target: T1, YFP-SPANX-A (human); assay: as above; remark: another data set of the same source

Row | binding | Molecule
12 | binds | keratin KRT9 (protein, UniProt P35527 1-623) MSCRQFSSSYLSRSGGGGGGGLGSGGSIRSSYSRFSSSGGGGGGGRFSSSSGYGGGSSRVCGRGGGGSFGYSYGGGSGGGFSASSLGGGFGGGSRGFGGASGGGYSSSGGFGGGFGGGSGGGFGGGYGSGFGGFGGFGGGAGGGDGGILTANEKSTMQELNSRLASYLDKVQALEEANNDLENKIQDWYDKKGPAAIQKNYSPYYNTIDDLKDQIVDLTVGNNKTLLDIDNTRMTLDDFRIKFEMEQNLRQGVDADINGLRQVLDNLTMEKSDLEMQYETLQEELMALKKNHKEEMSQLTGQNSGDVNVEINVAPGKDLTKTLNDMRQEYEQLIAKNRKDIENQYETQITQIEHEVSSSGQEVQSSAKEVTQLRHGVQELEIELQSQLSKKAALEKSLEDTKNRYCGQLQMIQEQISNLEAQITDVRQEIECQNQEYSLLLSIKMRLEKEIETYHNLLEGGQEDFESSGAGKIGLGGRGGSGGSYGRGSRGGSGGSYGGGGSGGGYGGGSGSRGGSGGSYGGGSGSGGGSGGGYGGGSGGGHSGGSGGGHSGGSGGNYGGGSGSGGGSGGGYGGGSGSRGGSGGSHGGGSGFGGESGGSYGGGEEASGSGGGYGGGSGKSSHS
13 | binds | F-box only protein 50 (NCCRP1) (protein, UniProt Q6ZVX7 1-275) MEEVREGHALGGGMEADGPASLQELPPSPRSPSPPPSPPPLPSPPSLPSPAAPEAPELPEPAQPSEAHARQLLLEEWGPLSGGLELPQRLTWKLLLLRRPLYRNLLRSPNPEGINIYEPAPPTGPTQRPLETLGNFRGWYIRTEKLQQNQSWTVKQQCVDLLAEGLWEELLDDEQPAITVMDWFEDSRLDACVYELHVWLLAADRRTVIAQHHVAPRTSGRGPPGRWVQVSHVFRHYGPGVRFIHFLHKAKNRMEPGGLRRTRVTDSSVSVQLRE

Source: article PMC7878863
